The values that follow come from the supplement of paper PMC3334620.

Over roughly 33,000 sequences, “E-score (-0.5 to 0.5)” has its median near -0.016; the highest 2% begin near 0.3. Some of the results follow.

The target of this experiment is T1, Yer184c (UniProt P39961).
T1 sequence: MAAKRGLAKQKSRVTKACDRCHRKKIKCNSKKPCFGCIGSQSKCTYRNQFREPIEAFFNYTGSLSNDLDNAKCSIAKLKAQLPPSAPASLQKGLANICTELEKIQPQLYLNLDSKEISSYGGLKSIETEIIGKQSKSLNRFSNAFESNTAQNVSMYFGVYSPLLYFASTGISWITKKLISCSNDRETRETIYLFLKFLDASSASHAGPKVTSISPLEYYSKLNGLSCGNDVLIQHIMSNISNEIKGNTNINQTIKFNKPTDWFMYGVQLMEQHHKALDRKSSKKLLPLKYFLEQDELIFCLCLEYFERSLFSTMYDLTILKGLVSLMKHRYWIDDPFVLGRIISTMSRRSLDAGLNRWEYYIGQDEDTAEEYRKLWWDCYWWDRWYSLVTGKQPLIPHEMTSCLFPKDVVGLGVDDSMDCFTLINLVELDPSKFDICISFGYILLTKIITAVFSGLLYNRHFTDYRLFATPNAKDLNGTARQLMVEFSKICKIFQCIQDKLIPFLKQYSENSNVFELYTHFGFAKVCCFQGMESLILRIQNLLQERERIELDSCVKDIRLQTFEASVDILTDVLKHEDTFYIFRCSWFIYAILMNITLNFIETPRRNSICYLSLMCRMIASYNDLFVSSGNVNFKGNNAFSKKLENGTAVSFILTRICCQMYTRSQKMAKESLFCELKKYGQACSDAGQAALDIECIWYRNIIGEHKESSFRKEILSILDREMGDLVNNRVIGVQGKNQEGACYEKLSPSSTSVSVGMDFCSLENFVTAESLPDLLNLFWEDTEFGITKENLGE
The experiment is described as follows: PBM E-score (8-mer binding enrichment) (E-score (-0.5 to 0.5)); higher = stronger / more preferred TF binding. The following applies: protein concentration: 100 nM; construct: GST-full length. In short, it runs like this:
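Yeast transcription factors, full-length or as DNA-binding domains, were expressed with a GST tag using PURExpress in vitro transcription/translation. At about 100-200 nM they were applied to universal all-10-mer Agilent arrays, double-stranded by primer extension on fresh or once-stripped slides. Fluorescent anti-GST detected bound protein, and masliner normalised the scans. E-scores for ungapped eight-base words, pooled with reverse complements, came from the Universal PBM Analysis Suite.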
Take GATCTCCC: the “PBM E-score” value was -0.191. As for ACAACAAT, the “PBM E-score” value is 0.0345. For the sequence ATGCAGTC, the “PBM E-score” value was -0.171.

Turning to GCAGGCCA, the “PBM E-score” value turned out to be 0.0121. Next, GAATATGA: 0.0575; AGGGTCTA: -0.11; GAAAGAGC: -0.0552. Turning to CCCAAACG, the “PBM E-score” value is -0.17. Turning to ATGCACGG, the “PBM E-score” value was -0.0666. For the sequence CCCACGGC, the “PBM E-score” value is -0.13.

As for ATTCAGCC, the “PBM E-score” value turned out to be 0.062.

Take ACGGGGTC: the “PBM E-score” value was -0.177.

For ATCCCACA, the “PBM E-score” value was -0.261. Then ACGGCGCA, with 0.118.

With GGTGTAAC, the “PBM E-score” value came out at 0.124.

With CGAAAGAC, the “PBM E-score” value was 0.14.

As for CATTAGTC, the “PBM E-score” value was found to be 0.0751. On to ACCGTTGG, for which the “PBM E-score” value was -0.244.

Turning to ACATGAGG, the “PBM E-score” value is -0.189. Then CTTTTACA, with 0.178; and ACAACCCA, with -0.0161; and AGTGCATC, with -0.108. Then AAGGGAGG, with -0.274; and AAGGCGGA, with 0.00368.

On to GTAGTTGA, for which the “PBM E-score” value was determined as 0.0649.

Regarding CGTCGACG, the “PBM E-score” value was -0.147. Then CCAGGATA, with -0.0425. Then CATGCGGA, with -0.0112; and AGTGCACC, with -0.0522.

As to ACACACAG, the “PBM E-score” value came out at 0.0494. Next, ACGTTATA: 0.126. ATGATGAG: the “PBM E-score” value was determined as 0.0229. Then CAGCACGC, with 0.0884; and CGCACCCA, with -0.264; and GTCTACTA, with -0.00492. Next, ACAACGGC: 0.124; CGCTTCAG: -0.0892; GCACCTCA: 0.0813. Next, CATCTTAA: 0.0283. With CGAGGTAG, the “PBM E-score” value was -0.2. Then CTCAACGC, with -0.232. Consider AACCTGAG, for which the “PBM E-score” value was -0.132. Then AAATGACG, with 0.0459; and CGGTGATA, with 0.105. Then AACCTCCC, with -0.158.

In the case of GGAATTTA, the “PBM E-score” value worked out at 0.181.

Consider AAGCAACT, for which the “PBM E-score” value came to 0.12. Next, CTATCGCC: -0.124; CAGATTCC: 0.0126; CGCTAATC: -0.0149.

Turning to CCGTTAGC, the “PBM E-score” value was -0.0068. Turning to AAAAAACG, the “PBM E-score” value was determined as 0.24. As to ATACAATA, the “PBM E-score” value was 0.275.

In the case of CATGAGAG, the “PBM E-score” value is -0.026. Then ACCCTCGC, with -0.191. On to ACACCTCC, for which the “PBM E-score” value is -0.113. Next, AGGCGTTG: -0.11; GTGGATCA: -0.254; ACCAATCT: -0.114. In the case of CTGATGAC, the “PBM E-score” value was -0.144. Then GCGGATGA, with 0.125; and ATCAGAAG, with -0.0418. AGGCAGCG: the “PBM E-score” value is -0.209. Next, CACCTCAC: -0.0148. Next, CTTGTATC: 0.0882. Then GCCGGACC, with 0.214; and GATGTCCA, with 0.117. On to TGAGTGAA, for which the “PBM E-score” value was -0.205. Then ATCCCTTG, with -0.223; and GTAGGGCA, with -0.106.

For the sequence CAAGGAAG, the “PBM E-score” value amounted to 0.085. Then GAGATACC, with 0.0999; and AAATCGTG, with 0.249; and GTGAAAGA, with 0.15.

Consider TACCGCGA, for which the “PBM E-score” value was determined as 0.172. Next, CTGACCTC: -0.177; AGTAGTTG: 0.00555. Next, CTAACTTA: 0.129; GCACCTGC: -0.0805; GAACCAGC: 0.0888. Then ATAGTGTG, with 0.0766; and CACGGATC, with 0.256. ACCTAAAT: the “PBM E-score” value was found to be 0.0509. Then GGGTCTAC, with -0.06; and GGTCAGGA, with -0.00348; and CTTCCTAC, with -0.341.
